# Most values lie at the floor of the assay. Slopes are relative: functional sequences can read slightly below zero.
# Test system: Saccharomyces cerevisiae PS128 hsf1 delta, HSF1(1-493) fusion
# Test: growth estimate (transactivation domain function in HSF1 fusion, heat-shock survival) (a.u. (slope of normalised read count over time)); higher = stronger growth at 37°C, i.e. more transactivation activity
# Conditions: library: random library
row,Substance,growth estimate
1,PCAPCSYGAFGIIKLWVQGQ,< -0.25
2,PCASL,< -0.25
3,PCATSVGSQFHVRQRMPKL,-0.2
4,PCDSCLAKNGHGQTPRRLNK,-0.245
5,PCFYVQRPYSSLRRLNCHVK,< -0.25
6,PCGGNVGLDCGTVRGRNS,< -0.25
7,PCGLGV,< -0.25
8,PCHG,< -0.25
9,PCILGFRQGRYFVRTRTPYV,< -0.25
10,PCISRYGLGSSCGLGPTVFI,< -0.25
11,PCKCIQSEASLYALYALPLC,< -0.25
12,PCKRCGCQCHNGGIQSCYGD,< -0.25
13,PCNRALAWPRYIIFMWRGGP,< -0.25
14,PCPTPC,< -0.25
15,PCQKGLRDVPFAPCCE,< -0.25
16,PCRD,< -0.25
17,PCSIMRRSHRARVVSL,< -0.25
18,PCTGAYSTCSVMEL,< -0.25
19,PCTIKAGPLCVWMENSGASA,< -0.25
20,PCVCPGRVSLDHSSRYVSVS,< -0.25
21,PDAS,< -0.25
22,PDEQKTHPSTTRDEQFRFRL,< -0.25
23,PDGFVVPYFAVGVARYSR,< -0.25
24,PDGSQVVL,< -0.25

row,Substance,growth estimate
1,PDHRSYG,< -0.25
2,PDKSDPWRAASLGAPVLGPA,< -0.25
3,PDLGGTDLHSPKSDCHNIAT,< -0.25
4,PDLIWWVNRYQVLPVQPYRH,< -0.25
5,PDMAVGFFSRIGVPVRYVTS,< -0.25
6,PDNILLTVWGIVSVCTLETG,< -0.25
7,PDNPVMPQVLKGFHLFIVVI,< -0.25
8,PDPDIGGRSHCVASY,< -0.25
9,PDRLGMCKDHWRFDPNVSGY,< -0.25
10,PDRNTLG,< -0.25
11,PDRTGLRQESDLVCPSLPKA,< -0.25
12,PDSGTGDTSLGTGIVPRTHL,< -0.25
13,PDSRFVGPCGV,< -0.25
14,PDSTN,< -0.25
15,PDVREWVP,< -0.25
16,PDYVVRCLFSSRLQSPGHSI,< -0.25
17,PEAEDKGARTGTPIGTSANQ,< -0.25
18,PECQNQ,-0.245
19,PECREP,< -0.25
20,PEEES,< -0.25
21,PEEGIAEVRSRQLRTRYRHS,< -0.25
22,PEERG,< -0.25
23,PEES,< -0.25
24,PEGGQSLLGQLGNVLLRT,< -0.25

row,Substance,growth estimate
1,PEHTPWV,< -0.25
2,PELGLCGQVSTCPF,< -0.25
3,PENSGQGVKVIQTASEYPPS,< -0.25
4,PEPSTGYVELRLVKSKLRQQ,< -0.25
5,PEQGWTKFGVQNRPNFSQKV,< -0.25
6,PERPRTRRFLFV,< -0.25
7,PERTMTTG,< -0.25
8,PESLLTLDFNGHGPQCPIAN,< -0.25
9,PESRLMIERNWGGVKCPCWS,< -0.25
10,PESSRNPLLGFWNWEVVYYM,< -0.25
11,PETDNVRWEHVQ,< -0.25
12,PETFRDGVNLLELDRISKFS,< -0.25
13,PETRISILLRGTLARKMPVD,< -0.25
14,PEVCELFTGSPSIVRSGGDV,< -0.25
15,PEVSYRRVLLP,< -0.25
16,PEVTLSIFVRIVQYFPREYR,< -0.25
17,PEY,< -0.25
18,PEYPSGVLRRLCVFSTLQPY,< -0.25
19,PFAHTDCNLQVARRLWSVTP,< -0.25
20,PFAMGFTTTGLADCAVGPPT,< -0.25
21,PFDGICNLSLPQVGTKKLHR,< -0.25
22,PFGKAIAYGMGFDAGRGGAS,< -0.25
23,PFGSPAFWHSYQTK,< -0.25
24,PFHVTVRRLTA,< -0.25

row,Substance,growth estimate
1,PFIFSGLAA,< -0.25
2,PFILVWVRVRPGFESSWVAT,< -0.25
3,PFKPGAP,< -0.25
4,PFLAIKRSW,< -0.25
5,PFLVFAGYPPHDNGDSFGTW,< -0.25
6,PFNFNRNDPLCDYSNRAVFG,< -0.25
7,PFNLSSSILLHPRVVKVGDV,< -0.25
8,PFPDVSSL,< -0.25
9,PFRM,< -0.25
10,PFTLWRRNVLRAEPKRISRS,< -0.25
11,PFTTTKAVPHACHLGHQTPY,-0.243
12,PFYPVMQSRSTEVTLGNLDR,< -0.25
13,PGAESLQKIRVRAWVLAVYR,< -0.25
14,PGAFDSDVFCFWRRTYFGVD,< -0.25
15,PGAIRERWGCGHSHFRFWGA,-0.166
16,PGALYG,< -0.25
17,PGCQNDARDNPTGKPGVHLP,< -0.25
18,PGCSHGRGCRPTATL,< -0.25
19,PGCWLSSHDVSMRCHLRLTA,< -0.25
20,PGDLLPRGVYWSFVLRIYTP,0.151
21,PGDQPNTNGGKQ,< -0.25
22,PGDRLIQVKRGWFRALVSWL,< -0.25
23,PGEKWTRT,< -0.25
24,PGENLPCQISLEPSSIVAPI,< -0.25

# Given tab-delimited: part of the list above.
row	Substance	growth estimate
22	PDEQKTHPSTTRDEQFRFRL	< -0.25
23	PDGFVVPYFAVGVARYSR	< -0.25
24	PDGSQVVL	< -0.25

# (further entries)

row,Substance,growth estimate
1,PGFN,< -0.25
2,PGFWRSGSSDLPVIGIRMTA,< -0.25
3,PGGAKIYDLRGARLCMNRTA,< -0.25
4,PGGGKSTLVVRGHYEWWRDM,< -0.25
5,PGGRLCRIPLCS,< -0.25
6,PGGRLWTGQALNVSPRTA,< -0.25
7,PGHLRRGGS,< -0.25
8,PGHQTPHRDFVW,-0.0948
9,PGIGLIQRTAVAIWLSWGMS,< -0.25
10,PGIIEEGGTVNLGQPNHSSG,< -0.25
11,PGILFSGPTVSHPKLG,< -0.25
12,PGILSS,< -0.25
13,PGIPGVGV,< -0.25
14,PGKT,< -0.25
15,PGLCLTRIG,< -0.25
16,PGLCSGRLGFRLSYTH,< -0.25
17,PGLQSYSVE,< -0.25
18,PGLRIRQFSYSGPRLDCMFF,< -0.25
19,PGNPKVGGQSWANKKVSNRL,-0.231
20,PGNRKGVSRVRHV,< -0.25
21,PGP,< -0.25
22,PGPMICICLNSARLYERAGH,< -0.25
23,PGPTVGHTLIPRGWPIPRRG,< -0.25
24,PGR,< -0.25

row,Substance,growth estimate
1,PGRDVSISGATGEAPYGPDG,< -0.25
2,PGRFTRSRE,< -0.25
3,PGRLQEKLWGHTDNY,< -0.25
4,PGRPALHILLGN,< -0.25
5,PGRRGKSGVPTRERPERTYA,< -0.25
6,PGRRQEQYCSTFFMCSVHDL,< -0.25
7,PGRRWVTTSALYTIFCRGER,< -0.25
8,PGRSVRYSKPRLV,< -0.25
9,PGRTERNHVVCPTIRF,< -0.25
10,PGS,-0.243
11,PGSLDHGGEVNDSIGDITLE,< -0.25
12,PGSRSVDFC,< -0.25
13,PGSVGACLQSQCPGSKL,< -0.25
14,PGTCLPPNPGT,< -0.25
15,PGTCVE,< -0.25
16,PGTD,< -0.25
17,PGTHVTIVGSGGQVVHPRPC,< -0.25
18,PGTKTSAHSCACLVTNRRVA,< -0.25
19,PGTRVKSAKTSMITPLPKD,< -0.25
20,PGTVVRNLSYT,< -0.25
21,PGVSRPSLGGNGDD,< -0.25
22,PGVYSSQRELSLPASGGALR,< -0.25
23,PGW,< -0.25
24,PGYGIHLNDQQRGIGVTPSI,< -0.25

# Four entries picked at random from those above:
row,Substance,growth estimate
22,PGVYSSQRELSLPASGGALR,< -0.25
10,PGS,-0.243
3,PGRLQEKLWGHTDNY,< -0.25
24,PGYGIHLNDQQRGIGVTPSI,< -0.25
